Measured values taken from US20220151976A1 (UNIVERSITY OF TOLEDO, published 2022).
Results are given in words; binding and its absence hold for the method and conditions named. For some assays here: In cells and extracts the contact can be indirect. Some entries that bind do so weakly or less than the wild type. For some assays here: Tags and fused reporters may be left off the sequences shown.

Amino acid sequences for entries named in this document (tags omitted). A change or cut given only in a name is not applied to a line headed by its entry. Residues count along the entry.
UniProt P60842, residues 2-406: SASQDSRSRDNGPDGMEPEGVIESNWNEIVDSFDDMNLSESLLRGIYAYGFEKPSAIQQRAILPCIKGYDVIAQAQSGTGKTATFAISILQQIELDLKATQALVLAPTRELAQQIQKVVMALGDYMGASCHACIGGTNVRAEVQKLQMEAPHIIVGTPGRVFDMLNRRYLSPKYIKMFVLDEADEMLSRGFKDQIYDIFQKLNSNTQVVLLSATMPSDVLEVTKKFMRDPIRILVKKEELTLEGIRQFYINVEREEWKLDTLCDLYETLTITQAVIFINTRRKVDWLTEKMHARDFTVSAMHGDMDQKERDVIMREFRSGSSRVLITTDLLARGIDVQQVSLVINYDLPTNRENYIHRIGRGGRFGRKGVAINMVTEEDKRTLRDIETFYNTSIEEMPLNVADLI
UniProt P23588: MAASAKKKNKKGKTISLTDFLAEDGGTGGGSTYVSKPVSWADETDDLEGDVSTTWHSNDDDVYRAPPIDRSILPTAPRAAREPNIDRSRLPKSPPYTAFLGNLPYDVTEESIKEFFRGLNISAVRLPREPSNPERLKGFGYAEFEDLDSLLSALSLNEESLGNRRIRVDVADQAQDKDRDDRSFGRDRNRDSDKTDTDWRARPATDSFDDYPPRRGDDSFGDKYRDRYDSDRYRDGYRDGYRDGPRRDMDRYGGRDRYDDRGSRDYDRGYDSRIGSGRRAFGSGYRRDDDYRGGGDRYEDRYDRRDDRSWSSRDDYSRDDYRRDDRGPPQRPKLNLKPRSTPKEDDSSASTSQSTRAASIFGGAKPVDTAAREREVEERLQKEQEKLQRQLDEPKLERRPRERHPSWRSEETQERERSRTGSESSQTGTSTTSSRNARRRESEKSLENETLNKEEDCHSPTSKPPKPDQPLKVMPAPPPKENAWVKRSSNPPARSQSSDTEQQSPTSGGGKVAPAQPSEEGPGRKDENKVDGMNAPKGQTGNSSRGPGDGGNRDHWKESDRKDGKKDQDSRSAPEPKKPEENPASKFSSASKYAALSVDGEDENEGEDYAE
UniProt P06730: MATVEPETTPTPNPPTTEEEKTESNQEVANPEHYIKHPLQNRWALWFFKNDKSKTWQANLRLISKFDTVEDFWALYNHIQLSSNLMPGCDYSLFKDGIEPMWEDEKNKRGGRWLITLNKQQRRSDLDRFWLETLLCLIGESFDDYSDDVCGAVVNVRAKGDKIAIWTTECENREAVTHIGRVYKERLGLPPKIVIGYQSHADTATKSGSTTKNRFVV
UniProt Q04637: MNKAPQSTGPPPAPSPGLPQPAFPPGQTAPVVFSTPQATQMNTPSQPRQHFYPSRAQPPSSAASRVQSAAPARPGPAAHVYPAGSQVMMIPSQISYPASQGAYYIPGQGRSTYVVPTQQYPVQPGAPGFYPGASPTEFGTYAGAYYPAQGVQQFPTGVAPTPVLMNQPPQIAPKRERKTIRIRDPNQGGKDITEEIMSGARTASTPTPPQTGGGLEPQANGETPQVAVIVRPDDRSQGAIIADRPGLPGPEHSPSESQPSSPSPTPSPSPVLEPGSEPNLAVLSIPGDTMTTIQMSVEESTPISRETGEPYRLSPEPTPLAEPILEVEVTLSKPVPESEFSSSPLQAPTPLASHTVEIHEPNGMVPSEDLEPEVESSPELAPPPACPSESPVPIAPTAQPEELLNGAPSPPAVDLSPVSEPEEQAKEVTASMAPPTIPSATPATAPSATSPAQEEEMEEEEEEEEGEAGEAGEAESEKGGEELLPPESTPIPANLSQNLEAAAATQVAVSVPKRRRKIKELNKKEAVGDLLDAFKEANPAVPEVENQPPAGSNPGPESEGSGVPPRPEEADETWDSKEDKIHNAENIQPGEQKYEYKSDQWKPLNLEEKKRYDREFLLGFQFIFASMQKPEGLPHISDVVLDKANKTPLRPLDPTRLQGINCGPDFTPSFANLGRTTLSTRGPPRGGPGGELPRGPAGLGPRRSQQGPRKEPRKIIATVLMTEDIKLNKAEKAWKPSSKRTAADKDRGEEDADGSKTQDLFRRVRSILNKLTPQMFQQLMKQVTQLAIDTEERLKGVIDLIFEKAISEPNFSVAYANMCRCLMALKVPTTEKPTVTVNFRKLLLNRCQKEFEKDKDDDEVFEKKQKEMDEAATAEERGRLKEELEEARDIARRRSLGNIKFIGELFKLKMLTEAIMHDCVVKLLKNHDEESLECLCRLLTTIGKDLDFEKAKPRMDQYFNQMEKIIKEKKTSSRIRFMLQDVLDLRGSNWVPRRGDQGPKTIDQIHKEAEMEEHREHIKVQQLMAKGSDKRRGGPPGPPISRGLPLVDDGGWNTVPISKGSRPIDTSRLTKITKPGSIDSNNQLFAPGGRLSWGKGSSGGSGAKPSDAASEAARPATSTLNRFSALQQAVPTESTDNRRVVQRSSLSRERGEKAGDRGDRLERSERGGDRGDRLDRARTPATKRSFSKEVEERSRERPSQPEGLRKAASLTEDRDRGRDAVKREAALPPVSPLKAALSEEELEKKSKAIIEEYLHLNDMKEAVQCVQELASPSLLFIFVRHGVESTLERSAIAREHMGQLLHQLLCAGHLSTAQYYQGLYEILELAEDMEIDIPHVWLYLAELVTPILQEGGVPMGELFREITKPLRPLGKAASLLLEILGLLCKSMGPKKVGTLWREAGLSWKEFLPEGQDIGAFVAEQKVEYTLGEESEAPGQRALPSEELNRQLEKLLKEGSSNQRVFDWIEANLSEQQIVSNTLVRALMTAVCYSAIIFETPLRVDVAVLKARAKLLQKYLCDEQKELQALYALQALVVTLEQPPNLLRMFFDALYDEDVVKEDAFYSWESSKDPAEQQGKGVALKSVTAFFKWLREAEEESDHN

Experiments:
[1] = biological target: T1, LIM and SH3 Protein 1 (LASP1), endogenous in 231S cells (human) (UniProt Q14847); test: co-immunoprecipitation (eIF4A IP, LASP1 blot) from 231S lysate
T1 sequence (looked up): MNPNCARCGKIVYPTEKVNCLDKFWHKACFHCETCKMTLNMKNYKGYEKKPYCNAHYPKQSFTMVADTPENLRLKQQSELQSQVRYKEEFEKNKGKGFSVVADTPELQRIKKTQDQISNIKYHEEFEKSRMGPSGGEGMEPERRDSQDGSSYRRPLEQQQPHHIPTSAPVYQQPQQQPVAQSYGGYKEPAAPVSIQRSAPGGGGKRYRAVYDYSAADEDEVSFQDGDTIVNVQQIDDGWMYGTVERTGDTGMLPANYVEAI

[2] = biological target: Eukaryotic initiation factor 4A (eIF4A1), endogenous in 231S cells (human) (UniProt P60842); test: GST-LASP1 pulldown
[3] = biological target: Eukaryotic initiation factor 4B (eIF4B), endogenous in 231S cells (human) (UniProt P23588); test: GST-LASP1 pulldown
[4] = biological target: purified recombinant eIF4B (UniProt P23588); test: GST-LASP1 pulldown of purified protein (legend of FIGS. 4A-4F)
[5] = biological target: purified recombinant eIF4B (UniProt P23588); test: equimolar purified proteins mixed in solution, captured with glutathione beads, Western blot
[6] = biological target: purified recombinant eIF4B (UniProt P23588); test: GST-LASP1 beads with purified recombinant protein, Western blot
[7] = biological target: Eukaryotic initiation factor 4A (eIF4A1), endogenous in 231S cells (human) (UniProt P60842); test: GST-LASP1 pulldown from 231S lysate
[8] = biological target: Eukaryotic initiation factor 4A (eIF4A1), endogenous in 231S cells (human) (UniProt P60842); test: GST-LASP1 pulldown from 231S lysate, Western blot
[9] = biological target: Eukaryotic initiation factor 4B (eIF4B), endogenous in 231S cells (human) (UniProt P23588); test: GST-LASP1 pulldown from 231S lysate, Western blot
[10] = biological target: T2, eukaryotic initiation factor 4F complex (eIF4F), endogenous in 231S cells (human) (UniProt P06730+P60842+Q04637); test: m7-GTP pulldown together with direct binding studies
[11] = biological target: T2, eukaryotic initiation factor 4F complex (eIF4F), endogenous in 231S cells (human); test: co-immunoprecipitation and m7GTP pulldown in 231S cells (legend of FIGS. 3A-3E)

Measured: binding

Eukaryotic initiation factor 4A (eIF4A1), endogenous in 231S cells (from UniProt P60842 2-406) (enzyme)
binds: [1]

B1: GST-LASP1 (human LASP1 open reading frame in pGEX-6P-1, made in E. coli BL21) (protein, UniProt Q14847 1-261, looked up, not shown: a dimerising Fc or GST)
chain: MNPNCARCGKIVYPTEKVNCLDKFWHKACFHCETCKMTLNMKNYKGYEKKPYCNAHYPKQSFTMVADTPENLRLKQQSELQSQVRYKEEFEKNKGKGFSVVADTPELQRIKKTQDQISNIKYHEEFEKSRMGPSGGEGMEPERRDSQDGSSYRRPLEQQQPHHIPTSAPVYQQPQQQPVAQSYGGYKEPAAPVSIQRSAPGGGGKRYRAVYDYSAADEDEVSFQDGDTIVNVQQIDDGWMYGTVERTGDTGMLPANYVEAI
not listed: [1] | [10] | [11]
binds: all other assays above

B2: LIM and SH3 Protein 1 (LASP1), endogenous in 231S cells (other, human, UniProt Q14847 1-261, looked up)
chain: MNPNCARCGKIVYPTEKVNCLDKFWHKACFHCETCKMTLNMKNYKGYEKKPYCNAHYPKQSFTMVADTPENLRLKQQSELQSQVRYKEEFEKNKGKGFSVVADTPELQRIKKTQDQISNIKYHEEFEKSRMGPSGGEGMEPERRDSQDGSSYRRPLEQQQPHHIPTSAPVYQQPQQQPVAQSYGGYKEPAAPVSIQRSAPGGGGKRYRAVYDYSAADEDEVSFQDGDTIVNVQQIDDGWMYGTVERTGDTGMLPANYVEAI
notes: Endogenous intracellular protein; detected or immunoprecipitated with mouse LASP1 antibody 8C6 (Biolegend 909301); also called endogenous LASP1
binds: [10] | [11]
